# Reference: PubChem BioAssay AID493014 (National Center for Advancing Translational Sciences (NCATS), 2011)
# Among all 340,000 compounds or so, about 170 (0.05%) were called active. Inconclusive results, whose numbers are uncertain, are shown with a selection of clear calls. The call rests on the fitted dose curve; in most records, active means well fitted inhibition curve with a large enough effect in the signal ratio, with a control signal flat (not every such curve was filed as active); inconclusive means small, poorly fitted or top-dose-only effect, or effect the other way, or a change in a side signal; inactive means flat fitted curve, though single readings scatter; the % refers to the signal ratio. A potency beside an inconclusive call is a rough fit, not a confirmed value.
# Assay: qHTS Assay to Find Inhibitors of Chronic Active B-Cell Receptor Signaling;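 on activity change, negative = inhibition: plate controls were basal doxycycline-induced cells for no effect and cells given 10 µM MG132 for full effect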
# Details: ABC-DLBCL IkBa-CBG/CBR reporter, luminescence ratio (green luciferase fused to IkBa over red control in TMD8 lymphoma cells), 4 h; activity change, negative = inhibition: at 46.1 µM (top of the series)
# How it was run: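 Compounds up to 46 uM were incubated four hours with TMD8 cells whose green CBG68 luciferase is fused to IkappaBalpha; red CBR luminescence normalised the signal, and concentration-effect curves were fitted to fusion, red and ratio data.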
# Potency means the concentration at half of the fitted maximal effect.
Structure (SMILES),"activity change, negative = inhibition",Potency
Cc1ccc(Cl)c(OC(=O)c2nn(C(C)C)c(=O)c3ccccc23)c1,inconclusive: 6.34%,
Cc1ccc(C)c(N2CCN(C(=O)CCCOc3cc(=O)n(C)c4ccccc34)CC2)c1,,"inconclusive: 12.6 µM [falling, partial curve, poor fit]"
CN1C(=O)c2ccc(NC(=O)c3cccc(N4C(=O)CCC4=O)c3)cc2C1=O,inconclusive: -19%,
COC(=O)c1ccc(NC(=O)Nc2ccc(C)cc2)cc1,,"inconclusive: 20.6 µM [falling, partial curve]"
COc1ccccc1-c1sc2cc3c(cc2c1C#Cc1ccccn1)OCO3,inconclusive: 14.4%,
O=C(NCCN1CCOCC1)/C(=C\c1ccc(Br)cc1)NC(=O)c1cccs1,inconclusive: -3.36%,
O=C(NC1CCCCC1)C(c1ccc2ncccc2c1)N(Cc1ccc(F)cc1)C(=O)c1cccs1 (centres undefined),inconclusive: -9.81%,
CC(Oc1cccnc1[N+](=O)[O-])C(=O)N1CCc2ccccc21 (centres undefined),inconclusive: -1.04%,
C#CCNC(=O)/C=C/c1ccc(OC)cc1,inconclusive: -19.7%,
O=C(C[C@H]1C/C=C\C[C@@H](Cc2ccc(F)cc2)C(=O)O[C@@H](c2ccccc2)CNC1=O)N[C@@H](CO)Cc1ccccc1,inconclusive: 6.11%,
COc1ccc(/C=N/OCC(=O)N=Nc2c(O)[nH]c3ccc(Br)cc23)cc1OC,inactive: -6.63%,
Cc1ccc(C(=O)Nc2ccc(Oc3ccc(C(=O)O)c(C(=O)O)c3)cc2)cc1C,,"inconclusive: 2.31 µM [falling, partial curve]"
COc1ccc(N=Cc2c(O)c3ccccc3oc2=O)cc1,,"inconclusive: 29.1 µM [rising, single point]"
CC(=O)NN1C(=O)/C(=C\c2ccc(O)cc2)SC1=S,,"inconclusive: 5.62 µM [falling, single point]"
C[C@@H](C(=O)N[C@@H](Cc1c[nH]c2ccccc12)C(=O)O)n1nnc2ccccc2c1=O,inconclusive: 0.75%,
O=C(COC(=O)c1cc[n+]([O-])cc1)Nc1ccc(F)c([N+](=O)[O-])c1,,"inconclusive: 18.4 µM [falling, single point]"
S=c1[nH]nc(-c2ccco2)n1C1CCCCC1,inactive: 1.05%,
CCOC(=O)c1sc(NC(=O)c2ccco2)nc1C,inconclusive: 1.83%,
COC(=O)c1c(-n2c(C)cc(C=O)c2C)sc2c1CCCC2,inconclusive: 16.2%,
Cc1ccc(/C=C2\SC(=S)N(CCC(=O)Nc3cccnc3)C2=O)cc1,,"inconclusive: 22.4 µM [falling, partial curve]"
CCOc1ccc(OCC)c(S(=O)(=O)NCc2ccccc2)c1,inconclusive: 2.52%,

# Part of the list above in order of heavy-atom count, rising:
Structure (SMILES),"activity change, negative = inhibition",Potency
Cc1ccc(/C=C2\SC(=S)N(CCC(=O)Nc3cccnc3)C2=O)cc1,,"inconclusive: 22.4 µM [falling, partial curve]"
C[C@@H](C(=O)N[C@@H](Cc1c[nH]c2ccccc12)C(=O)O)n1nnc2ccccc2c1=O,inconclusive: 0.75%,
Cc1ccc(C)c(N2CCN(C(=O)CCCOc3cc(=O)n(C)c4ccccc34)CC2)c1,,"inconclusive: 12.6 µM [falling, partial curve, poor fit]"

# Later entries.

Structure (SMILES),"activity change, negative = inhibition",Potency
Cc1cc(=O)[nH]c2c(N=Nc3ccc(O)cc3)c(N)nn12,,"inconclusive: 12.6 µM [falling, partial curve]"
COc1ccccc1NCCC(=O)O,inactive: -2.09%,
CC1=CC(C)(C)N(C(=O)CSc2nnc(N)s2)c2ccccc21,inconclusive: -9.32%,
CC(C)(C)NNC(=S)Nc1cccc(F)c1,,"inconclusive: 22.4 µM [cytotoxic, partial curve]"
COc1ccc(-n2c(-c3ccc(Br)cc3)c[n+]3c2CCc2ccccc2-3)cc1,inactive: -19.5%,
Cc1cccc(CSc2ccc(-c3ccco3)nn2)c1,inconclusive: 18.4%,
Cc1nc2oc3ccc(Cl)cc3c(=O)c2cc1C(=O)O,,"inconclusive: 12.6 µM [falling, single point]"
Cc1cccc(S(=O)(=O)c2c(N)n(Cc3ccco3)c3nc4ccccc4nc23)c1,inactive: 6.51%,
Cc1cc(SCC(=O)N/N=C/c2ccc(O)c(O)c2)c(C)cc1Br,,"inconclusive: 25.9 µM [falling, single point]"
CCC(CC)CN1C(Nc2ccccc2)=NC[C@@H]1CC(C)C,inconclusive: -13.3%,
COc1cc(CN2CCC(n3nccc3NC(=O)c3ccccc3OC)CC2)ccc1F,,"inconclusive: 12.6 µM [falling, single point]"
COc1cc(/C=N/NC(=O)C(=O)/C=C2\NC3(CCCC3)Cc3ccccc32)ccc1O,inconclusive: -0.738%,
O=C(NN1CCOCC1)c1cc(S(=O)(=O)Nc2cccc(C(F)(F)F)c2)ccc1Cl,inconclusive: 7.91%,
O=C1C(c2ccc(F)cc2)N(CCc2ccccc2)C(=O)CN1C1CCCCCC1 (centres undefined),inactive: 5.76%,
COc1ccc(N(C(=O)c2cccnc2)S(=O)(=O)c2ccc(F)cc2)cc1,inconclusive: -18.8%,
CN1C(=O)/C(=C/c2ccc3c(c2)OCO3)N=C1c1ccccc1,inactive: -0.0487%,
O=C(COc1ccc(F)cc1)Nc1ccc2c(c1)OCCO2,inactive: -5.45%,
O=C1N/C(=N\N=C\c2ccco2)SC1Cc1ccccc1[N+](=O)[O-] (centres undefined),,"inconclusive: 11.2 µM [falling, partial curve]"
COC(=O)c1sc(S(=O)(=O)N2CCN(CCO)CC2)c(C(=O)OC)c1C,inconclusive: -0.0901%,
COc1ccc(NC(C)c2ccccc2)cc1 (centres undefined),inconclusive: 22.5%,
Nc1nc(-c2ccc(Oc3ccccc3)cc2)cs1,inconclusive: -1.13%,

# Some of the entries above in another layout:
Structure (SMILES)	activity change, negative = inhibition	Potency
Cc1cccc(CSc2ccc(-c3ccco3)nn2)c1	inconclusive: 18.4%	
O=C(COc1ccc(F)cc1)Nc1ccc2c(c1)OCCO2	inactive: -5.45%	

# Later entries.

Structure (SMILES),"activity change, negative = inhibition",Potency
CCc1c(C)nc2[nH]nc(-c3ccccc3)n2c1=O,,"inconclusive: 17.8 µM [falling, partial curve]"
C=CCNCCOCCOc1ccc(Cl)cc1C(C)(C)C,inconclusive: -13.3%,
O=C(Nc1ccc(N2CCCC2)cc1)C(Cl)c1ccccc1 (centres undefined),inactive: -0.403%,
CN(C)CCSc1nc(-c2ccccc2)nc2c1CCCC2,inactive: -9.29%,
COc1cccc2c1OCC(C(=O)NCc1ccc(Cl)cc1Cl)=C2,inconclusive: 0.732%,
Cc1ccc(-c2nnc(N3CCN(CCO)CC3)c3ccccc23)cc1,inactive: -17.1%,
CCN1CCN(c2ccc(S(=O)(=O)N3CCCCC3)cc2NC(=O)/C=C/c2ccc(OC)c(OC)c2)CC1,inconclusive: -0.819%,
COc1cc(/C=C(\C#N)c2nc3ccccc3[nH]2)cc(Br)c1OCc1ccccc1,inactive: 1.11%,
C[C@H](CO)N1C[C@H](C)[C@@H](CN(C)S(C)(=O)=O)Oc2ccc(NC(=O)Cn3cnnn3)cc2C1=O,inactive: -0.814%,
O=C(Nc1cccs1)Nc1ccccc1Br,inconclusive: -13%,
Cn1c(=O)c2cc(S(=O)(=O)N3CCOCC3)ccc2n(C)c1=O,inactive: 9.25%,
Cc1ccc(CCC(=O)Nc2ccccc2C(=O)O)o1,,"inconclusive: 25.1 µM [falling, partial curve]"
Cc1cc(Br)c(S(=O)(=O)n2nnc3ccccc32)cc1C,inactive: -6.47%,
N#CCSc1nc2ccccc2c2nc3ccccc3n12,inconclusive: 13.2%,
CC(CS(=O)(=O)c1ccc2c(c1)NC(=O)CS2)C(=O)NCc1ccccc1Cl (centres undefined),inactive: -1.23%,
O=C(Nc1ccncc1)c1cccc(S(=O)(=O)N2CCOCC2)c1,inactive: -0.483%,
c1csc(-c2csc3ncnc(NCCCN4CCOCC4)c23)c1,inconclusive: -17%,
S=c1[nH]c2ccc3ccccc3c2[nH]1,inconclusive: -2.08%,
COc1ccc(C(=O)NC(C)c2cnn(-c3ccccn3)c2C)o1 (centres undefined),inactive: -6.28%,
COc1ccc(C2(C)NC(=O)N(CC(=O)Nc3ccc4c(c3)CCC4)C2=O)cc1OC (centres undefined),inconclusive: -2.6%,
COc1ccc(-c2oc3ncn4nc(Cc5ccccc5)nc4c3c2-c2ccc(OC)cc2)cc1,inconclusive: 5.4%,

Structure (SMILES),"activity change, negative = inhibition",Potency
O=c1[nH]c(SCc2nc3ccccc3n2Cc2ccccc2)nc2ccccc12,inconclusive: 5.95%,
Cc1[nH]c2ccccc2c1-c1csc(NC(=O)CSCC(=O)O)n1,,"inconclusive: 22.4 µM [falling, single point]"
NCCN1CCN(CCN)CC1,inconclusive: -1.97%,
CCCC(=O)c1ccc(N2CCN(C(=O)c3ccccc3)CC2)c(F)c1,inconclusive: -8.51%,
COc1ccc2oc(C(=O)N(C)Cc3ccc4c(c3)OCCO4)c(C)c2c1,inconclusive: -23.5%,
Cc1ccc(CCNC(=O)C23CN(Cc4ccccc4)CC2C(c2ccc([N+](=O)[O-])cc2)=NO3)cc1 (centres undefined),inconclusive: 8.22%,
Cc1cc2occ(CC(=O)N(C)CC(=O)Nc3c(C)cccc3C)c2cc1C,inconclusive: 2.08%,
CCN(CC)S(=O)(=O)c1ccc(N2CCCC2)c(NC(=O)Cc2ccc(OC)cc2)c1,inconclusive: 8.68%,
Cc1cc(NC(=O)CN2CCC(n3nnc4cc(C(F)(F)F)ccc43)CC2)no1,inactive: -2.37%,
O=C(NCC(c1ccco1)S(=O)(=O)c1cccs1)c1ccc(Cl)cc1 (centres undefined),inactive: 2.44%,
CCOC(=O)Cc1csc(NC(=O)NC2(C(F)(F)F)Oc3ccccc3O2)n1,,"inconclusive: 16.4 µM [falling, partial curve]"
COC(=O)c1sccc1S(=O)(=O)N(CC(=O)Nc1ccccc1)c1ccccc1,inconclusive: -4.77%,
NS(=O)(=O)c1ccc(N/N=C/c2ccccc2Br)cc1,inactive: -5.25%,
Cc1cc(C)c(OCC(=O)Nc2ccccn2)c([N+](=O)[O-])c1,inconclusive: 5.44%,
Cc1ccc(/C=C2/Sc3ccccc3N(CC(=O)NCC3CCCO3)C2=O)cc1 (centres undefined),inconclusive: 6.9%,
O=C(N/C=N/OCc1ccc(Cl)cc1Cl)NOCc1ncc(C(F)(F)F)cc1Cl,,"inconclusive: 9.2 µM [falling, partial curve, poor fit]"
COC(=O)c1sccc1NC(=O)c1cc(C)on1,inactive: -3.38%,
CCn1nc(NC(C)=O)c2cc3cccc(C)c3nc21,inactive: 3.14%,
O=C(O)c1ccc(S(=O)(=O)N[C@H](Cc2c[nH]c3ccccc23)C(=O)O)cc1,inactive: 0.144%,
C[C@H](NS(=O)(=O)c1c(Cl)cccc1Cl)C(=O)NNC(=O)COc1ccccc1F,inconclusive: 6.5%,
COc1ccc(OC)c(/C=N/Nc2nc(C)cc(=O)[nH]2)c1,inactive: -1.97%,
